Assay in all cases: affinity purification with mass spectrometry; tandem affinity purification (GS tag) from Arabidopsis PSB-D cell suspension cultures expressing N- or C-terminal TAP fusions of the bait; MALDI TOF/TOF; background subtracted
The target in test [1] is bHLH017-TAP (Arabidopsis thaliana) (UniProt Q9ZPY8).
Test [2] concerns the target bHLH003-TAP (Arabidopsis thaliana) (UniProt O23487).
Test [3] deals with bHLH013-TAP (Arabidopsis thaliana) (UniProt Q9LNJ5).

Sequences of proteins named here, by UniProt entry; tags and fusion partners are left off. A change or cut given only in a name is not applied to a line headed by its entry.
UniProt Q9ZPY8: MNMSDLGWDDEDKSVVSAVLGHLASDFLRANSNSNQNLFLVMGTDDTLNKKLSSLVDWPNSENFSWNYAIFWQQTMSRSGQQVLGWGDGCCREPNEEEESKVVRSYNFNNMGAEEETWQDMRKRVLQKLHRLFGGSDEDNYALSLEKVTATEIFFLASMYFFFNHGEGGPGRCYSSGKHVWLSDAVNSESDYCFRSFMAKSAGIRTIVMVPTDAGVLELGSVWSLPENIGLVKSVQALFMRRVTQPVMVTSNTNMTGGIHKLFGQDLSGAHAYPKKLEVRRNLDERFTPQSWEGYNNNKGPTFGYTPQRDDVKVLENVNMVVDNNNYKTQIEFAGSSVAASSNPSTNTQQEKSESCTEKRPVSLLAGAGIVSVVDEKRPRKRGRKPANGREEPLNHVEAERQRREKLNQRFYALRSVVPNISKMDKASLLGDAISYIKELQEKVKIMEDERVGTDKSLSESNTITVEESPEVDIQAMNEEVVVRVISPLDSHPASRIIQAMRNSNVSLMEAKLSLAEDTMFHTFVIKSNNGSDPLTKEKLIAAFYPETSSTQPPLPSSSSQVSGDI
UniProt O23487: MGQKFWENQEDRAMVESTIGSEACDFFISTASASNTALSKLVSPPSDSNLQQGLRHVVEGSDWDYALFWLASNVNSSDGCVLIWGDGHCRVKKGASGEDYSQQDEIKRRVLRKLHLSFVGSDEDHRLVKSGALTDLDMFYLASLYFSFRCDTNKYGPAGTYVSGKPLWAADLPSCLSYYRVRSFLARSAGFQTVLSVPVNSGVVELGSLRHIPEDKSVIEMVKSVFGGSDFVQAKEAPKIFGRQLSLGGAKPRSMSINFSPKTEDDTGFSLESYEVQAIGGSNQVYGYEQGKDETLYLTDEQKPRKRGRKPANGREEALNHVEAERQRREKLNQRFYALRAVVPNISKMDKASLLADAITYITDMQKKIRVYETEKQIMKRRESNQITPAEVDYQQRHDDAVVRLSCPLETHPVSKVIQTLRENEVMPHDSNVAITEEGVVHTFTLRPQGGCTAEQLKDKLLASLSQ
UniProt Q9LNJ5: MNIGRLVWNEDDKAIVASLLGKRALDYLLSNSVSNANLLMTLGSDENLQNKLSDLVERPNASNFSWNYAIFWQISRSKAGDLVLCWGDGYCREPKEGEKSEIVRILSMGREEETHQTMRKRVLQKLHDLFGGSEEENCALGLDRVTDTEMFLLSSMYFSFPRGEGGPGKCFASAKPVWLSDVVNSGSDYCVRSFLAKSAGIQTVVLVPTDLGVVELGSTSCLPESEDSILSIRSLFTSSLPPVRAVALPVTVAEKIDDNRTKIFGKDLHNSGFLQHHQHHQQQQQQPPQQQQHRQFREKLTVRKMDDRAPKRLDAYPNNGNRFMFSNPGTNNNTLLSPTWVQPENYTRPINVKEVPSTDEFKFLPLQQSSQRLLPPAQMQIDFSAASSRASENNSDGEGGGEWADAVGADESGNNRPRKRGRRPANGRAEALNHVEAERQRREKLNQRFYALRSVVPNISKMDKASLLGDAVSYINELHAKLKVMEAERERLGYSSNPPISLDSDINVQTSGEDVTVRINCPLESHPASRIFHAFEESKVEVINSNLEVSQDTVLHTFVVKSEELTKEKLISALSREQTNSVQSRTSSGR
UniProt Q9S7M2: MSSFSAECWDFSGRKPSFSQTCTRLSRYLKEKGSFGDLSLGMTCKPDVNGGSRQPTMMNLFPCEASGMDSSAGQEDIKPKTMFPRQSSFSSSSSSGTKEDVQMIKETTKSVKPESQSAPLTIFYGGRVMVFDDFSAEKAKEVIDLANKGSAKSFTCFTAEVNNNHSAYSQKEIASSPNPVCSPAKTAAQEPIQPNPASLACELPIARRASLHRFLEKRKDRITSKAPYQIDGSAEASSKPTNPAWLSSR
UniProt Q9C5K8: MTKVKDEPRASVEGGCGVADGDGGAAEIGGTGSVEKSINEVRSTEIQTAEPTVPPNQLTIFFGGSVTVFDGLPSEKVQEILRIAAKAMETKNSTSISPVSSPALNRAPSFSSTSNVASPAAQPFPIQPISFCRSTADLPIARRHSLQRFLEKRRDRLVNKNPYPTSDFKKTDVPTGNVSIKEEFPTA
UniProt Q9FIP9: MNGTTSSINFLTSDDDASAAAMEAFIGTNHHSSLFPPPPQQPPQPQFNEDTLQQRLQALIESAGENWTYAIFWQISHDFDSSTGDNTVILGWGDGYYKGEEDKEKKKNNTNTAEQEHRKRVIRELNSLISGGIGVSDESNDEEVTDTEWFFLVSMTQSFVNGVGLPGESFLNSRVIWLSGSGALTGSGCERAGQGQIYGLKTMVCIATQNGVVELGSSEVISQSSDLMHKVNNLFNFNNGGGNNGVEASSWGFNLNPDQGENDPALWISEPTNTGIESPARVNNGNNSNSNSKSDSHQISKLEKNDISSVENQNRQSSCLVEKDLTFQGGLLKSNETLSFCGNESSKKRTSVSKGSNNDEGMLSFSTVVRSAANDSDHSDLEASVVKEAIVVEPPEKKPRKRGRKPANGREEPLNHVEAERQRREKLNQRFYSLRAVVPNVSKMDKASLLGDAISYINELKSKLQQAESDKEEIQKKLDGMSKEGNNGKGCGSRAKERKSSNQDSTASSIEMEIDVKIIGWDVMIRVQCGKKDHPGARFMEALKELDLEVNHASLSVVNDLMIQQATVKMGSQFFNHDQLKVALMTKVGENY
UniProt O49687: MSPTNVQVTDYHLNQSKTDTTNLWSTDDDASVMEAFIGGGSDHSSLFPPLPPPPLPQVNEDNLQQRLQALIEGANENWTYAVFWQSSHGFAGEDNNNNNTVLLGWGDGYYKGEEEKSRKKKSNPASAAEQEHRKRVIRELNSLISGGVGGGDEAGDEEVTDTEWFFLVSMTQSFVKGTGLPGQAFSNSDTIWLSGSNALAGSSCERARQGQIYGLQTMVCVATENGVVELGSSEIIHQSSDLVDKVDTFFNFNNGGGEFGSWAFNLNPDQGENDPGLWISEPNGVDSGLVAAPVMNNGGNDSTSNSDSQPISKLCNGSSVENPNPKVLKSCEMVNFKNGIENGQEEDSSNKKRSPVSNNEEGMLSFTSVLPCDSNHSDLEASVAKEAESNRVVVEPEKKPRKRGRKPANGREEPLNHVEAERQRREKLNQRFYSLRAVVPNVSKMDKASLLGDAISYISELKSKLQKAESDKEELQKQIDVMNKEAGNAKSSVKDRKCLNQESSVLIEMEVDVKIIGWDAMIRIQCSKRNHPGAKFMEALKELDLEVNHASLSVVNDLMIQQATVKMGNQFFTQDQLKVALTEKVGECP
UniProt Q9SV55: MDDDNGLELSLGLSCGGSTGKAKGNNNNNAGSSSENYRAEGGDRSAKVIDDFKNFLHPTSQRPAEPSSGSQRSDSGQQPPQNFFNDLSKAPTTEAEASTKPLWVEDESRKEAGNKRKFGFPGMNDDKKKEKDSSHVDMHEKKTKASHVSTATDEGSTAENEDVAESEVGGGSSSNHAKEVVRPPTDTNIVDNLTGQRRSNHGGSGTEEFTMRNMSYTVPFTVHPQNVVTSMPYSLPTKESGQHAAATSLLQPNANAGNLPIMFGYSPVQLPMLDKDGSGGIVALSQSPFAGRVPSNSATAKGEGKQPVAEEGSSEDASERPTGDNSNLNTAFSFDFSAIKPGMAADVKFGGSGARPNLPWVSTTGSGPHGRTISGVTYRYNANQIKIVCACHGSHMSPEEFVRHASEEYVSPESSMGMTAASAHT

Results are given in words; binding and its absence hold for the method and conditions named. In cells and extracts the contact can be indirect. A yes stands for co-enrichment or nearness to the bait. Other partners may have been found. A no says only that the protein was not detected with the bait.

As for “JAZ2 (prey in TAP) (from UniProt Q9S7M2)”, the binding result in test [1] is reported as “binds”.
As to “JAZ12 (prey in TAP) (from UniProt Q9C5K8)”, the binding entry in test [1] is listed as “binds”.
As to MYC3 (from UniProt Q9FIP9 1-592), the binding result in test [2], in test [3] and in test [1] was “no binding” in each case.
MYC4 (from UniProt O49687 1-589): the binding entry in test [2], in test [3] and in test [1] was “no binding” in each case.
Turning to “NINJA (prey in TAP) (from UniProt Q9SV55 1-425)”, the binding result in test [1] is “binds”.
Regarding “bHLH003 (prey in TAP) (from UniProt O23487)”, the binding entry in test [3] and in test [1] was “binds” throughout.
As for “bHLH013 (prey in TAP) (from UniProt Q9LNJ5)”, in test [2], the binding result was “binds”.

B1: JAZ11 (prey in TAP) (protein, UniProt Q9M246 1-238)
chain: MAEVNGDFPVPSFADGTGSVSAGLDLLVERSIHEARSTEPDASTQLTIIFGGSCRVFNGVPAQKVQEIIRIAFAGKQTKNVTGINPALNRALSFSTVADLPIARRRSLQRFLEKRRDRSTKPDGSMILPSQLTIIFGGSFSVFDGIPAEKVQEILHIAAAAKATETINLTSINPALKRAISFSNASTVACVSTADVPIARRRSLQRFFEKRRHRFVHTKPYSATTSEADKNETSPIVT
As for B1, the binding result in test [1] is “binds”.

(Values after paper PMC3900477.)
